Read-outs that look alike come from different tables or passages of the source.
Tested on: Pseudomonas aeruginosa
Settings: for Pseudomonas aeruginosa Therapeutic index (HC50/MICGM): Table 12; for Therapeutic index HC50/MIC: HC50 over geometric mean MIC; for Therapeutic index HC50/MIC / Therapeutic index Fold (improvement compared to D1): P. aeruginosa

| SMILES | Pseudomonas aeruginosa Therapeutic index (HC50/MICGM) | Therapeutic index HC50/MIC (Brain Heart Infusion medium) | Therapeutic index Fold (improvement compared to D1) (Brain Heart Infusion medium) | Therapeutic index HC50/MIC (Mueller Hinton medium) | Therapeutic index Fold (improvement compared to D1) (Mueller Hinton medium) |
| --- | --- | --- | --- | --- | --- |
| CC[C@@H](C)[C@@H](NC(=O)[C@@H](C)NC(=O)[C@@H](CCCCN)NC(=O)[C@@H](CC(C)C)NC(=O)[C@@H](CC(C)C)NC(=O)[C@H](NC(=O)[C@@H](CCCCN)NC(=O)[C@@H](CC(C)C)NC(=O)[C@@H](CCCCN)NC(=O)[C@@H](CCCCN)NC(=O)[C@@H](CCCCN)NC(=O)[C@@H](CCCCN)NC(=O)[C@@H](CC(C)C)NC(=O)[C@@H](CCCCN)NC(=O)[C@@H](CO)NC(=O)[C@@H](Cc1ccccc1)NC(=O)[C@H](NC(=O)[C@@H](CCCCN)NC(=O)[C@@H](CC(C)C)NC(=O)[C@@H](Cc1ccccc1)NC(=O)[C@@H](CO)NC(=O)[C@@H](CCCCN)NC(=O)[C@@H](Cc1c[nH]c2ccccc12)NC(=O)[C@@H](CCCCN)NC(C)=O)[C@H](C)O)[C@H](C)O)C(=O)N[C@H](CO)C(=O)N[C@H](CCCCN)C(N)=O [Peptide D13, Ac-KWKSFLKTFSKLKKKKLKTLLKAISK-amide] | 42.3 |  |  |  |  |
| CC[C@@H](C)[C@@H](NC(=O)[C@@H](C)NC(=O)[C@@H](CCCCN)NC(=O)[C@@H](CC(C)C)NC(=O)[C@@H](CC(C)C)NC(=O)[C@H](NC(=O)[C@@H](CCCCN)NC(=O)[C@@H](CC(C)C)NC(=O)[C@@H](C)NC(=O)[C@@H](CCCCN)NC(=O)[C@@H](CCCCN)NC(=O)[C@@H](CCCCN)NC(=O)[C@@H](C)NC(=O)[C@@H](CCCCN)NC(=O)[C@@H](CO)NC(=O)[C@@H](Cc1ccccc1)NC(=O)[C@H](NC(=O)[C@@H](CCCCN)NC(=O)[C@@H](CC(C)C)NC(=O)[C@@H](Cc1ccccc1)NC(=O)[C@@H](CO)NC(=O)[C@@H](CCCCN)NC(=O)[C@@H](Cc1c[nH]c2ccccc12)NC(=O)[C@@H](CO)NC(C)=O)[C@H](C)O)[C@H](C)O)C(=O)N[C@H](CO)C(=O)N[C@H](CO)C(N)=O [Peptide D20, Ac-SWKSFLKTFSKAKKKALKTLLKAISS-amide] |  | 7.8 | 0.58 | 6.2 | 0.18 |
| CC(=O)N[C@H](CCCCN)C(=O)N[C@H](CC(C)C)C(=O)N[C@H](CCCCN)C(=O)N[C@H](CO)C(=O)N[C@H](CC(C)C)C(=O)N[C@H](CC(C)C)C(=O)N[C@H](CCCCN)C(=O)N[C@@H](C(=O)N[C@H](CC(C)C)C(=O)N[C@H](CO)C(=O)N[C@H](CCCCN)C(=O)N[C@H](CC(C)C)C(=O)N[C@H](CCCCN)C(=O)N[C@H](CCCCN)C(=O)N[C@H](CCCCN)C(=O)N[C@H](CCCCN)C(=O)N[C@H](CC(C)C)C(=O)N[C@H](CCCCN)C(=O)N[C@@H](C(=O)N[C@H](CC(C)C)C(=O)N[C@H](CC(C)C)C(=O)N[C@H](CCCCN)C(=O)N[C@H](C)C(=O)N[C@H](CC(C)C)C(=O)N[C@H](CO)C(=O)N[C@H](CCCCN)C(N)=O)[C@H](C)O)[C@H](C)O [Peptide D23, Ac-KLKSLLKTLSKLKKKKLKTLLKALSK-amide] | 95.1 |  |  |  |  |
| CC[C@@H](C)[C@@H](NC(=O)[C@@H](C)NC(=O)[C@@H](CO)NC(=O)[C@@H](CC(C)C)NC(=O)[C@@H](CC(C)C)NC(=O)[C@H](NC(=O)[C@@H](CCCCN)NC(=O)[C@@H](CC(C)C)NC(=O)[C@@H](C)NC(=O)[C@@H](CCCCN)NC(=O)[C@@H](CCCCN)NC(=O)[C@@H](CCCCN)NC(=O)[C@@H](C)NC(=O)[C@@H](CCCCN)NC(=O)[C@@H](CO)NC(=O)[C@@H](Cc1ccccc1)NC(=O)[C@H](NC(=O)[C@@H](CO)NC(=O)[C@@H](CC(C)C)NC(=O)[C@@H](Cc1ccccc1)NC(=O)[C@@H](CO)NC(=O)[C@@H](CO)NC(=O)[C@@H](Cc1c[nH]c2ccccc12)NC(=O)[C@@H](CO)NC(C)=O)[C@H](C)O)[C@H](C)O)C(=O)N[C@H](CO)C(=O)N[C@H](CO)C(N)=O [Peptide D17, Ac-SWSSFLSTFSKAKKKALKTLLSAISS-amide] |  | 1.8 | 0.13 | 2.8 | 0.08 |
| CC[C@@H](C)[C@@H](NC(=O)[C@@H](C)NC(=O)[C@@H](CCCCN)NC(=O)[C@@H](CC(C)C)NC(=O)[C@@H](CC(C)C)NC(=O)[C@H](NC(=O)[C@@H](CCCCN)NC(=O)[C@@H](CC(C)C)NC(=O)[C@@H](C)NC(=O)[C@@H](CCCCN)NC(=O)[C@@H](CCCCN)NC(=O)[C@@H](CCCCN)NC(=O)[C@@H](C)NC(=O)[C@@H](CCCCN)NC(=O)[C@@H](CO)NC(=O)[C@@H](Cc1ccccc1)NC(=O)[C@H](NC(=O)[C@@H](CCCCN)NC(=O)[C@@H](CC(C)C)NC(=O)[C@@H](Cc1ccccc1)NC(=O)[C@@H](CO)NC(=O)[C@@H](CO)NC(=O)[C@@H](Cc1c[nH]c2ccccc12)NC(=O)[C@@H](CO)NC(C)=O)[C@H](C)O)[C@H](C)O)C(=O)N[C@H](CO)C(=O)N[C@H](CO)C(N)=O [Peptide D19, Ac-SWSSFLKTFSKAKKKALKTLLKAISS-amide] |  | 3.7 | 0.27 | 4.6 | 0.14 |
| CC[C@@H](C)[C@@H](NC(=O)[C@@H](C)NC(=O)[C@@H](CCCCN)NC(=O)[C@@H](CC(C)C)NC(=O)[C@@H](CC(C)C)NC(=O)[C@H](NC(=O)[C@@H](CCCCN)NC(=O)[C@@H](CC(C)C)NC(=O)[C@@H](C)NC(=O)[C@@H](CCCCN)NC(=O)[C@@H](CCCCN)NC(=O)[C@@H](CCCCN)NC(=O)[C@@H](C)NC(=O)[C@@H](CCCCN)NC(=O)[C@@H](CO)NC(=O)[C@@H](Cc1ccccc1)NC(=O)[C@H](NC(=O)[C@@H](CCCCN)NC(=O)[C@@H](CC(C)C)NC(=O)[C@@H](Cc1ccccc1)NC(=O)[C@@H](CO)NC(=O)[C@@H](CCCCN)NC(=O)[C@@H](Cc1c[nH]c2ccccc12)NC(=O)[C@@H](CO)NC(C)=O)[C@H](C)O)[C@H](C)O)C(=O)N[C@H](CO)C(=O)N[C@H](CCCCN)C(N)=O [Peptide D21, Ac-SWKSFLKTFSKAKKKALKTLLKAISK-amide] |  | 14.3 | 1.06 | 14.2 | 0.42 |
| CC[C@@H](C)[C@@H](NC(=O)[C@@H](C)NC(=O)[C@@H](CO)NC(=O)[C@@H](CC(C)C)NC(=O)[C@@H](CC(C)C)NC(=O)[C@H](NC(=O)[C@@H](CCCCN)NC(=O)[C@@H](CC(C)C)NC(=O)[C@@H](C)NC(=O)[C@@H](CCCCN)NC(=O)[C@@H](CCCCN)NC(=O)[C@@H](CCCCN)NC(=O)[C@@H](C)NC(=O)[C@@H](CCCCN)NC(=O)[C@@H](CO)NC(=O)[C@@H](Cc1ccccc1)NC(=O)[C@H](NC(=O)[C@@H](CCCCN)NC(=O)[C@@H](CC(C)C)NC(=O)[C@@H](Cc1ccccc1)NC(=O)[C@@H](CO)NC(=O)[C@@H](CO)NC(=O)[C@@H](Cc1c[nH]c2ccccc12)NC(=O)[C@@H](CO)NC(C)=O)[C@H](C)O)[C@H](C)O)C(=O)N[C@H](CO)C(=O)N[C@H](CO)C(N)=O [Peptide D18, Ac-SWSSFLKTFSKAKKKALKTLLSAISS-amide] |  | 3.7 | 0.28 | 5.6 | 0.16 |
| CC[C@@H](C)[C@@H](NC(=O)[C@@H](CC(C)C)NC(=O)[C@@H](CCCCN)NC(=O)[C@@H](CC(C)C)NC(=O)[C@@H](CC(C)C)NC(=O)[C@H](NC(=O)[C@@H](Cc1c[nH]cn1)NC(=O)[C@@H](CC(C)C)NC(=O)[C@@H](CCCCN)NC(=O)[C@H](NC(=O)[C@@H](CCCCN)NC(=O)[C@@H](CCCCN)NC(=O)[C@@H](CC(C)C)NC(=O)[C@@H](CO)NC(=O)[C@@H](CCCCN)NC(=O)[C@@H](Cc1ccccc1)NC(=O)[C@H](NC(=O)[C@@H](CCCCN)NC(=O)[C@@H](CC(C)C)NC(=O)[C@@H](Cc1ccccc1)NC(=O)[C@@H](CO)NC(=O)[C@@H](CCCCN)NC(=O)[C@@H](Cc1c[nH]c2ccccc12)NC(=O)[C@@H](CCCCN)NC(C)=O)[C@H](C)O)[C@H](C)O)[C@H](C)O)C(=O)N[C@H](CO)C(=O)N[C@H](CO)C(N)=O [Peptide D5, Ac-KWKSFLKTFKSLKKTKLHTLLKLISS-amide] | 4.3 | 2.1 | 0.16 | 4.3 | 0.13 |

From patent US9352015B2, “Antimicrobial peptides” (priority 2009, dated 2016)
